PubChem BioAssay AID1224830, NIAID – 2016
Here is a random part of about 18,000 reagents. About 2,900 of them (16%) were called active. 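Calls are made per well; low scores hint the gene aids the LPS response, high scores that it dampens it.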 Repeated entries: four replicate wells of each siRNA pool.

Purpose: 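Genes whose knock-down alters the TNF-alpha reporter response to LPS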 (primary screen)
System: human THP-1 monocytic leukaemia cells, TNF dual-luciferase reporter clone, PMA-differentiated to macrophage-like cells
Knock-down reagent: siRNA pool against human genes, 50 nM
Duration: LPS for 4 h, given about 3 days after siRNA transfection
Conditions: bacterial LPS (TLR4 ligand), 10 ng/ml
Read-out: 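TNF firefly reporter luminescence divided by renilla, normalised to the plate median, then turned into a robust z-score for each replicate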
Scale: TNF reporter robust z-score: higher = stronger TNF reporter response to LPS
Rule for the call: 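a well is active when its z-score exceeds 2.8 or falls below -1.5; control wells carry no call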

no.	target gene	TNF reporter robust z-score	call
1	APBA3 (GeneID 9546)	1.4	inactive
2	APBA3 (GeneID 9546)	1.7	inactive
3	APBA3 (GeneID 9546)	0.86	inactive
4	APBA3 (GeneID 9546)	2.81	active
5	C11orf40 (GeneID 143501)	0.22	inactive
6	C11orf40 (GeneID 143501)	0.64	inactive
7	C11orf40 (GeneID 143501)	0.71	inactive
8	C11orf40 (GeneID 143501)	-0.2	inactive
9	ZNF616 (GeneID 90317)	0.81	inactive
10	ZNF616 (GeneID 90317)	0.66	inactive
11	ZNF616 (GeneID 90317)	-0.14	inactive
12	ZNF616 (GeneID 90317)	1.13	inactive
13	GTF2F1 (GeneID 2962)	2.1	inactive
14	GTF2F1 (GeneID 2962)	3.81	active
15	GTF2F1 (GeneID 2962)	2.05	inactive
16	GTF2F1 (GeneID 2962)	0.52	inactive
17	TMEM120A (GeneID 83862)	-1.2	inactive
18	TMEM120A (GeneID 83862)	-0.31	inactive
19	TMEM120A (GeneID 83862)	-0.84	inactive
20	TMEM120A (GeneID 83862)	-0.79	inactive
21	CDCA8 (GeneID 55143)	-0.83	inactive
22	CDCA8 (GeneID 55143)	-1.62	active
23	CDCA8 (GeneID 55143)	-1.9	active
24	CDCA8 (GeneID 55143)	-0.88	inactive
25	SACK1G (GeneID 644815)	0.79	inactive
26	SACK1G (GeneID 644815)	0.76	inactive
27	SACK1G (GeneID 644815)	0.83	inactive
28	SACK1G (GeneID 644815)	-0.3	inactive
29	TRPM5 (GeneID 29850)	-0.34	inactive
30	TRPM5 (GeneID 29850)	2.69	inactive
31	TRPM5 (GeneID 29850)	-0.43	inactive
32	TRPM5 (GeneID 29850)	0.76	inactive
33	UBA52 (GeneID 7311)	-0.18	inactive
34	UBA52 (GeneID 7311)	0.24	inactive
35	UBA52 (GeneID 7311)	-0.21	inactive
36	UBA52 (GeneID 7311)	-0.42	inactive
37	LYRM4 (GeneID 57128)	-1.2	inactive
38	LYRM4 (GeneID 57128)	-1.05	inactive
39	LYRM4 (GeneID 57128)	-0.57	inactive
40	LYRM4 (GeneID 57128)	0.33	inactive
41	AQP5 (GeneID 362)	0.01	inactive
42	AQP5 (GeneID 362)	0.85	inactive
43	AQP5 (GeneID 362)	0.25	inactive
44	AQP5 (GeneID 362)	0.54	inactive
45	TRIM27 (GeneID 5987)	-0.8	inactive
46	TRIM27 (GeneID 5987)	-0.75	inactive
47	TRIM27 (GeneID 5987)	-0.67	inactive
48	TRIM27 (GeneID 5987)	-0.91	inactive
49	LAMP2 (GeneID 3920)	0.05	inactive
50	LAMP2 (GeneID 3920)	0.89	inactive
51	LAMP2 (GeneID 3920)	0.58	inactive
52	LAMP2 (GeneID 3920)	1.18	inactive
53	POLR3A (GeneID 11128)	-1.05	inactive
54	POLR3A (GeneID 11128)	-0.4	inactive
55	POLR3A (GeneID 11128)	1.01	inactive
56	POLR3A (GeneID 11128)	1.53	inactive
57	VCP (GeneID 7415)	-1.67	active
58	VCP (GeneID 7415)	-1.2	inactive
59	VCP (GeneID 7415)	-1.17	inactive
60	VCP (GeneID 7415)	-1.28	inactive
61	PAPOLG (GeneID 64895)	2.6	inactive
62	PAPOLG (GeneID 64895)	2.06	inactive
63	PAPOLG (GeneID 64895)	1.46	inactive
64	PAPOLG (GeneID 64895)	1.25	inactive
65	PSMA6 (GeneID 5687)	-1.74	active
66	PSMA6 (GeneID 5687)	-1.95	active
67	PSMA6 (GeneID 5687)	-1.93	active
68	PSMA6 (GeneID 5687)	-1.8	active
69	AOAH (GeneID 313)	-2.48	active
70	AOAH (GeneID 313)	-0.05	inactive
71	AOAH (GeneID 313)	-0.91	inactive
72	AOAH (GeneID 313)	-0.16	inactive
73	CTSW (GeneID 1521)	3.65	active
74	CTSW (GeneID 1521)	1.47	inactive
75	CTSW (GeneID 1521)	0.64	inactive
76	CTSW (GeneID 1521)	0.41	inactive
77	FAM120A (GeneID 23196)	-0.72	inactive
78	FAM120A (GeneID 23196)	-0.54	inactive
79	FAM120A (GeneID 23196)	-0.88	inactive
80	FAM120A (GeneID 23196)	-0.3	inactive
81	KCNMA1 (GeneID 3778)	-0.09	inactive
82	KCNMA1 (GeneID 3778)	0.22	inactive
83	KCNMA1 (GeneID 3778)	-0.11	inactive
84	KCNMA1 (GeneID 3778)	0.21	inactive
85	ZBTB35 (GeneID 7690)	-0.84	inactive
86	ZBTB35 (GeneID 7690)	0.61	inactive
87	ZBTB35 (GeneID 7690)	-0.2	inactive
88	ZBTB35 (GeneID 7690)	0.27	inactive
89	DHX15 (GeneID 1665)	-0.12	inactive
90	DHX15 (GeneID 1665)	0.42	inactive
91	DHX15 (GeneID 1665)	0.11	inactive
92	DHX15 (GeneID 1665)	1.11	inactive
93	ABHD5 (GeneID 51099)	-0.76	inactive
94	ABHD5 (GeneID 51099)	-0.32	inactive
95	ABHD5 (GeneID 51099)	0.39	inactive
96	ABHD5 (GeneID 51099)	0.97	inactive
97	AP5M1 (GeneID 55745)	-0.22	inactive
98	AP5M1 (GeneID 55745)	-0.29	inactive
99	AP5M1 (GeneID 55745)	-0.64	inactive
100	AP5M1 (GeneID 55745)	-1.3	inactive
101	ARMCX6 (GeneID 54470)	-0.37	inactive
102	ARMCX6 (GeneID 54470)	-0.24	inactive
103	ARMCX6 (GeneID 54470)	-0.62	inactive
104	ARMCX6 (GeneID 54470)	1.24	inactive
105	UBE2D3 (GeneID 7323)	-0.23	inactive
106	UBE2D3 (GeneID 7323)	-0.18	inactive
107	UBE2D3 (GeneID 7323)	0.04	inactive
108	UBE2D3 (GeneID 7323)	-0.03	inactive
109	SLC7A9 (GeneID 11136)	-1.32	inactive
110	SLC7A9 (GeneID 11136)	-1	inactive
111	SLC7A9 (GeneID 11136)	-1.14	inactive
112	SLC7A9 (GeneID 11136)	0.19	inactive

Records listed so far whose target name begins with K or k:
target gene	TNF reporter robust z-score	call
KCNMA1 (GeneID 3778)	-0.09	inactive
KCNMA1 (GeneID 3778)	0.22	inactive
KCNMA1 (GeneID 3778)	-0.11	inactive
KCNMA1 (GeneID 3778)	0.21	inactive
